This assay can be described thus: qHTS Assay for Modulators of Lamin A Splicing. The note with it: HeLa LMNA splicing GFP/RFP minigene ratio, 48 h. A digest of the protocol: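 S3 HeLa cells stably expressing lamin A-EGFP splicing minigene plus DsRed2, 600 cells/well, 48 h compound exposure at 37C. Laser-scanning cytometry; analysed as GFP (500-530 nm)/RFP (575-640 nm) total intensity ratio; 0.5% DMSO vehicle.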
(In qHTS, concentration-response curves come from the screen itself.)

Where [1] appears, read: measured here: GFP splicing reporter channel.
The mark [2] stands for this setting: measured here: RFP viability control channel.

As usually defined, the AC50 is the concentration at which the activity in the assay is half-maximal.

SMILES strings stand for the structures. The list shows a part of the results. The main result of the screen is listed elsewhere. These columns were measured beside it and carry no call. The list favours compounds with an active or inconclusive main result. Words in brackets tell the shape of the fitted curve; partial curves, single points and poor fits give uncertain potencies.

Consider `CCOC(=O)COc1ccccc1/C=C\[N+](=O)[O-]`, for which the half-maximal activity concentration (AC50) is 3.55 µM [falling, single point] under setting [1] and 4.47 µM [falling, single point] under setting [2].

With `COc1cc(C(=O)N/N=C(\c2ccccc2)c2ccccn2)cc(OC)c1OC`, the AC50 under setting [1] was 35.5 µM [rising, single point] and the AC50 under setting [2] is 7.08 µM [rising, partial curve, poor fit].

For the molecule `Cn1c(SCC(=O)N(Cc2ccccc2)C(C)(C)C)nc2ccccc21`, the AC50 under setting [2] was 12.6 µM [rising, single point].

In the case of `Cc1cc(C)cc(OCC(=O)NN2C(=O)c3ccccc3C2=O)c1`, under setting [2], the AC50 was 0.0794 µM [falling, full curve, poor fit].

For the molecule `CCOC(=O)/C(=C\c1ccccc1)C(=O)c1cc(C(C)=O)c(Nc2ccccc2)s1`, the AC50 by setting is: under setting [1], 5.62 µM [falling, single point]; under setting [2], 17.8 µM [falling, single point].

Consider `CCc1cc(-c2nc(N)ncc2-c2csc(C)n2)c(O)cc1OC`, for which the AC50 under setting [2] was 31.6 µM [falling, single point].

For `O=C(CSc1nnc2ccccn12)NCCc1ccc(Cl)cc1`, the AC50 is, setting by setting: under setting [1], 35.5 µM [rising, single point]; under setting [2], 3.98 µM [rising, partial curve, poor fit].

For the molecule `CCOc1ccc(/C=N/NC(=O)CC(=O)NCc2ccccc2)cc1`, the AC50 was 0.398 µM [falling, full curve, poor fit] under setting [1] and 20 µM [falling, partial curve, poor fit] under setting [2].

With `Oc1ccc(/C=N/Nc2cccc3cccnc23)c(O)c1`, the AC50 is 35.5 µM [rising, single point] under setting [1] and 14.1 µM [rising, partial curve] under setting [2].

Regarding `c1csc(CNc2ncnc3ccc(-c4ccoc4)cc23)c1`, the AC50 reads like this: under setting [1], 11.2 µM [falling, partial curve, poor fit]; under setting [2], 7.08 µM [falling, partial curve, poor fit].

As for `Cc1ccccc1-n1c(-c2ccc(=O)[nH]n2)n[nH]c1=S`, the AC50 under setting [2] is 0.631 µM [falling, full curve].

For the molecule `CN(C(=O)COc1ccccc1)c1nnc(C23CC4CC(CC(C4)C2)C3)s1`, the AC50 under setting [2] was 8.91 µM [falling, full curve].

For the molecule `C(=N\N(Cc1ccccc1)c1ccccc1)/c1ccco1`, the AC50 under setting [2] is 0.0178 µM [falling, full curve, poor fit].

For `Cc1cc(NC(=O)c2cccc(S(=O)(=O)N3CCOCC3)c2)c2ccccc2n1`, the AC50 under setting [2] is 17.8 µM [rising, partial curve].

On to `Cc1nc(N2CCCC2)ncc1C(=O)Nc1ccc(OC(F)(F)F)cc1`, for which, under setting [1], the AC50 is 0.891 µM [rising, full curve, poor fit].

For `CCOC(=O)c1cc(-c2ccc(F)cc2)n(CCC(=O)Nc2nc3cc(C)c(C)cc3s2)c1C`, the AC50 under setting [2] was 20 µM [falling, single point].

`OCCN1CCN(c2ncnc3c2cnn3-c2cccc(Cl)c2)CC1`: the AC50 under setting [2] is 0.1 µM [falling, full curve, poor fit].

For the molecule `C=CCn1c(N)c(C(=O)NCC2CCCO2)c2nc3ccccc3nc21` (stereo not given), under setting [2], the AC50 is 35.5 µM [rising, single point].

Take `COc1ccc(Cn2ccn(CC(=O)Nc3cc(C)ccc3C)c(=O)c2=O)cc1`: the AC50 under setting [2] was 0.0141 µM [rising, full curve].

Regarding `COc1cc(C2=NOC(C(=O)NCc3ccco3)C2)cc(OC)c1OC` (stereo not given), the AC50 by setting is: under setting [1], 10 µM [falling, partial curve]; under setting [2], 7.94 µM [falling, partial curve, poor fit].

As for `CC(C)(C)C(=O)[C@@H]1[C@@H]2C(=O)N(Cc3ccccc3)C(=O)[C@@H]2[C@H]2c3ccccc3C=CN12`, the AC50 under setting [1] was 11.2 µM [rising, partial curve].

Turning to `CN1CCN(S(=O)(=O)c2ccc(NC(=S)NC(=O)c3ccc(Cl)cc3)cc2)CC1`, the AC50 by setting is: under setting [1], 31.6 µM [rising, single point]; under setting [2], 35.5 µM [rising, single point].

Regarding `O=Nc1c(O)n(Cc2ccc(Cl)cc2Cl)c2ccccc12`, the AC50 reads like this: under setting [1], 0.562 µM [falling, partial curve]; under setting [2], 0.398 µM [falling, partial curve].

For the molecule `CC1=C(C#N)C2C(/C1=N/O)C2(C)C` (stereo not given), the AC50 under setting [2] is 14.1 µM [rising, single point].

Consider `CC(=O)N(Cc1ccc(F)cc1)Cc1nc2ccccc2c(=O)[nH]1`, for which the AC50 under setting [2] is 11.2 µM [falling, partial curve].

On to `Cc1cc(C)c2cc(CN(CCO)C(c3nnnn3Cc3ccc(F)cc3)C(C)C)c(=O)[nH]c2c1` (stereo not given), for which, under setting [2], the AC50 was 35.5 µM [rising, single point].

As to `CCCCNC(=S)Nc1ccc([N+](=O)[O-])cc1`, the AC50 was 7.08 µM [rising, partial curve] under setting [1] and 12.6 µM [rising, partial curve] under setting [2].

Take `CCCOc1ccc(C2C(=O)N(C3CCCCCC3)CC(=O)N2C(C)C)cc1OC` (stereo not given): under setting [2], the AC50 was 8.91 µM [rising, partial curve].

In the case of `O=C(Nc1nc2cc3c(cc2s1)OCCO3)c1cccc(S(=O)(=O)N2CCOCC2)c1`, the AC50 under setting [2] is 17.8 µM [rising, single point].

Take `CCn1c2ccccc2c2cc(NC(=O)COC(=O)c3cc(S(N)(=O)=O)c(Cl)cc3Cl)ccc21`: under setting [2], the AC50 is 2.51 µM [falling, partial curve, poor fit].

On to `COc1ccc(-c2cn3cccnc3n2)cc1NC(=O)c1ccccc1C(F)(F)F`, for which, under setting [1], the AC50 is 5.62 µM [rising, single point].

`O=C(NC(=S)Nc1ccccc1N1CCCCC1)c1ccco1`: the AC50 under setting [2] is 22.4 µM [rising, partial curve, poor fit].

With `COc1cc(S(=O)(=O)NC2CCCCC2C)ccc1-n1cnnn1` (stereo not given), under setting [2], the AC50 was 35.5 µM [falling, partial curve, poor fit].

As for `CC(C)OCCCNC(=O)CN1C(=O)/C(=C/c2ccccc2)Sc2ccccc21`, the AC50 under setting [2] is 17.8 µM [rising, single point].

With `CCOC(=O)c1cccc(-n2c(C)cc(C=O)c2C)c1`, the AC50 under setting [1] was 8.91 µM [rising, partial curve, poor fit] and the AC50 under setting [2] was 11.2 µM [rising, single point].

As to `CCCCNC(=O)c1onc(CSc2cc(C)ccc2C)c1C(=O)O`, the AC50 was 17.8 µM [rising, single point] under setting [1] and 20 µM [rising, single point] under setting [2].

Consider `CCOc1ccc(NC(=O)CN(c2ccc(OC)cc2)S(C)(=O)=O)cc1`, for which, under setting [2], the AC50 is 11.2 µM [rising, single point].

For `COc1cc(NC(=O)CCS(=O)(=O)c2ccc(Br)cc2)cc(OC)c1`, the AC50 under setting [2] is 0.891 µM [falling, full curve, poor fit].

For the molecule `Cc1ccc(CNC(=O)c2ccc3c(c2)NC(=O)C(CS(=O)(=O)Cc2cccc(C)c2)N3)cc1` (stereo not given), the AC50 was 35.5 µM [falling, single point] under setting [1] and 35.5 µM [falling, single point] under setting [2].

For `Nc1ncnc2c1ncn2[C@@H]1O[C@@H](CO)[C@H](O)[C@H]1O`, the AC50 under setting [1] is 0.794 µM [falling, full curve, poor fit].

`CC(=O)Nc1cccc(-c2csc(Nc3cc(C)ccn3)n2)c1`: the AC50 is, setting by setting: under setting [1], 20 µM [falling, single point]; under setting [2], 35.5 µM [falling, single point].

Turning to `Cc1cc(Nc2cccc(F)c2)nc(-c2ccccc2O)n1`, the AC50 under setting [2] is 14.1 µM [rising, single point].

In the case of `Cc1ccc(C)c(OCC(=O)Nc2nonc2NC(=O)COc2cc(C)ccc2C)c1`, the AC50 under setting [1] is 20 µM [rising, single point].

For the molecule `Cc1ccc(-c2nc(-c3cccnc3)sc2CC(=O)Nc2ccc3nc(C)sc3c2)cc1`, the AC50 under setting [2] was 0.0794 µM [rising, partial curve].

For the molecule `CCCCCN1CC(O)=C(c2nc3ccccc3[nH]2)C1=N`, the AC50 under setting [1] was 0.0398 µM [rising, full curve, poor fit].

Regarding `CCOC(=O)c1c(NC(=O)CSc2nncs2)sc(C)c1-c1ccccc1`, the AC50 under setting [1] was 17.8 µM [rising, partial curve, poor fit] and the AC50 under setting [2] is 15.8 µM [rising, partial curve].

Consider `CCN(CC)CC(O)COCCC12CC3CC(CC(C3)C1)C2` (stereo not given), for which the AC50 is 17.8 µM [rising, single point] under setting [1] and 20 µM [rising, single point] under setting [2].

Consider `O=C(c1ccc2ccccc2c1)C1CCCN(S(=O)(=O)c2cccnc2)C1` (stereo not given), for which the AC50 runs as follows: under setting [1], 14.1 µM [falling, partial curve]; under setting [2], 17.8 µM [falling, partial curve].

`COc1cc2c3nnc(-c4ccc(F)cc4)c-3cn(Cc3cccc(F)c3)c2cc1OC`: under setting [2], the AC50 was 0.0708 µM [falling, single point].

For the molecule `CN(C)c1cccc(C(=O)NNC(=S)NC2CC3CCC2C3)c1` (stereo not given), the AC50 under setting [1] is 7.94 µM [falling, partial curve, poor fit].

In the case of `CCn1c(=O)cc(OCC(=O)Nc2ccc(C)cn2)c2ccccc21`, the AC50 under setting [2] is 28.2 µM [falling, partial curve].

For the molecule `O=C(Cc1ccc(Nc2nc3ccc(Br)cc3[nH]2)cc1)NCCc1cccs1`, the AC50 under setting [2] is 12.6 µM [rising, single point].

With `Cc1cc(C(=O)COC(=O)Cc2n[nH]c(=O)c3ccccc23)c(C)n1-c1ccc2c(c1)OCO2`, the AC50 reads like this: under setting [1], 20 µM [rising, single point]; under setting [2], 28.2 µM [rising, single point].

With `Cn1c(CO)c(-c2ccccc2)c2cc([N+](=O)[O-])ccc21`, the AC50 under setting [2] was 5.01 µM [rising, partial curve, poor fit].

`COc1ccc(CN2CCN(C(=O)c3ccco3)CC2)cc1OCc1ccccc1`: the AC50 is 35.5 µM [rising, single point] under setting [1] and 35.5 µM [rising, single point] under setting [2].

The values are drawn from PubChem BioAssay AID1487 (National Center for Advancing Translational Sciences (NCATS), 2009).
